From article PMC4454200
No constants are given. Whether binding was seen depends on the method and setting. A result given as binding can be weak or reduced; the word gives no strength.

Biological target: GST-GTD fusion protein (C-terminal 410 residues of Myo5a), wild type (mouse)
Assay: pull-down; GST pull-down: 0.5 uM GST-GTD and 1 uM Myo5a-HMM with GSH-Sepharose and the indicated concentrations of Mlph-GTBDP; WB-50 buffer (20 mM MOPS-KOH pH 7.0, 50 mM NaCl, 1 mM MgCl2, 1 mM DTT, 12 uM CaM, 1 mM EGTA), 4 C, 2 hr; SDS-PAGE, Coomassie staining; both purified

Binder: RDQPLNSKKKKRLLSFRDVDFEEDSDY (peptide, UniProt Q91V27 176-201) [Mlph-GTBDP, 26-residue Myo5a-GTD binding peptide of melanophilin with a C-terminal tyrosine]
- binding: binds
